Results are given in words; binding and its absence hold for the method and conditions named. For part of these data: In cells and extracts the contact can be indirect. Some binding calls cover weakened binding; strength is not graded here.
Experiments:
[1] = target: REX1/ZFP42 transcription factor, endogenous in mESCs (mouse (endogenous in mESCs)) (UniProt P22227); assay: co-IP; lysates of WT, Rlim-/y, RNF12 WT-KI, 4xSA-KI, ΔSR-KI and W576Y-KI mESCs treated with 10 μM MG132 for 6 h; protein A or G beads with 2 μg antibody in lysis buffer overnight at 4°C; washed three times with lysis buffer supplemented with 500 μM NaCl (so in the source); immunoblotting for RNF12 and REX1; which protein was precipitated is not told
GST-REX1, recombinant = GST-REX1, recombinant (UniProt P22227); assay: pull-down; 0.5 μg RNF12 incubated with WT or kinase dead SRPK1 or SRPK2 and 2 mM ATP for 1 h at 37°C, ATP depleted with apyrase, mixed with 0.5 μg GST-REX1 in 500 μl GST pulldown buffer (10 mM Tris pH 8.0, 150 mM NaCl, 10% glycerol, 0.1% Triton X-100) overnight at 4°C; GSH Sepharose 4B beads 2 h at 4°C; immunoblotting; both purified

Protein sequences, listed by entry. Tags and fused reporters are not part of them.
UniProt P22227: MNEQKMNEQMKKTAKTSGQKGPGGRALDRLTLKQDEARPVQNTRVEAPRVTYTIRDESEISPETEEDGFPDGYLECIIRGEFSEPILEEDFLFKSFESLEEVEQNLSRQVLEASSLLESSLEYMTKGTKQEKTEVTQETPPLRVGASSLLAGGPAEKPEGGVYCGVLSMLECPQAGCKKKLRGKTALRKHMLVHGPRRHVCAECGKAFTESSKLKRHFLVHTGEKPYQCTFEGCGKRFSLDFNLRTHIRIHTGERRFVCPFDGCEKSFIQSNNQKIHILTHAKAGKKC

Binder	binding [1]	binding (GST-REX1, recombinant)
RNF12 4xSA (S212A/S214A/S227A/S229A), knock-in in mESCs (protein, UniProt Q9WTV7 1-600) MENSDSNDKGSDQSAAQRRSQMDRLDREEAFYQFVNNLSEEDYRLMRDNNLLGTPGESTEEELLRRLQQIKEGPPPQSPDENRAGESSDDVTNSDSIIDWLNSVRQTGNTTRSGQRGNQSWRAVSRTNPNSGDFRFSLEINVNRNNGSQTSENESEPSTRRLSVENMESSSQRQMENSASESASARPSRAERNSAEAVTEVPTTRAQRRARARAPEHRRTRARAERARAPLQPTSEIPRRAPTLEQSSENEPEGSSRTRHHVTLRQQISGPELLGRGLFAASGSRNPSQGTSSSDTGSNSESSGSGQRPPTIVLDLQVRRVRPGEYRQRDSIASRTRSRSQAPNNTVTYESERGGFRRTFSRSERAGVRTYVSTIRIPIRRILNTGLSETTSVAIQTMLRQIMTGFGELSYFMYSDSDSEPSASVSSRNVERVESRNGRGSSGGGNSSGSSSSSSPSPSSSGESSESSSEMFEGSSEGGSSGPSRRDGRHRAPVTFDESGSLPFLSLAQFFLLNEDDEDQPRGLTKEQIDNLAMRSFGENDALKTCSVCITEYTEGNKLRKLPCSHEYHVHCIDRWLSENSTCPICRRAVLSSGNRESVV	binds	–
RNF12 ΔSR (residues 206-229 of the SR-motif deleted), knock-in in mESCs (protein, UniProt Q9WTV7) MENSDSNDKGSDQSAAQRRSQMDRLDREEAFYQFVNNLSEEDYRLMRDNNLLGTPGESTEEELLRRLQQIKEGPPPQSPDENRAGESSDDVTNSDSIIDWLNSVRQTGNTTRSGQRGNQSWRAVSRTNPNSGDFRFSLEINVNRNNGSQTSENESEPSTRRLSVENMESSSQRQMENSASESASARPSRAERNSAEAVTEVPTTRPLQPTSEIPRRAPTLEQSSENEPEGSSRTRHHVTLRQQISGPELLGRGLFAASGSRNPSQGTSSSDTGSNSESSGSGQRPPTIVLDLQVRRVRPGEYRQRDSIASRTRSRSQAPNNTVTYESERGGFRRTFSRSERAGVRTYVSTIRIPIRRILNTGLSETTSVAIQTMLRQIMTGFGELSYFMYSDSDSEPSASVSSRNVERVESRNGRGSSGGGNSSGSSSSSSPSPSSSGESSESSSEMFEGSSEGGSSGPSRRDGRHRAPVTFDESGSLPFLSLAQFFLLNEDDEDQPRGLTKEQIDNLAMRSFGENDALKTCSVCITEYTEGNKLRKLPCSHEYHVHCIDRWLSENSTCPICRRAVLSSGNRESVV	binds	–
Recombinant RNF12, unphosphorylated (incubated with kinase dead SRPK1 or SRPK2) (protein, UniProt Q9WTV7 1-600) MENSDSNDKGSDQSAAQRRSQMDRLDREEAFYQFVNNLSEEDYRLMRDNNLLGTPGESTEEELLRRLQQIKEGPPPQSPDENRAGESSDDVTNSDSIIDWLNSVRQTGNTTRSGQRGNQSWRAVSRTNPNSGDFRFSLEINVNRNNGSQTSENESEPSTRRLSVENMESSSQRQMENSASESASARPSRAERNSAEAVTEVPTTRAQRRARSRSPEHRRTRARAERSRSPLQPTSEIPRRAPTLEQSSENEPEGSSRTRHHVTLRQQISGPELLGRGLFAASGSRNPSQGTSSSDTGSNSESSGSGQRPPTIVLDLQVRRVRPGEYRQRDSIASRTRSRSQAPNNTVTYESERGGFRRTFSRSERAGVRTYVSTIRIPIRRILNTGLSETTSVAIQTMLRQIMTGFGELSYFMYSDSDSEPSASVSSRNVERVESRNGRGSSGGGNSSGSSSSSSPSPSSSGESSESSSEMFEGSSEGGSSGPSRRDGRHRAPVTFDESGSLPFLSLAQFFLLNEDDEDQPRGLTKEQIDNLAMRSFGENDALKTCSVCITEYTEGNKLRKLPCSHEYHVHCIDRWLSENSTCPICRRAVLSSGNRESVV	–	binds
